The results in this text go back to article PMC7756940.

Chains of the proteins cited; added tags and fusions are not shown.
UniProt P29590: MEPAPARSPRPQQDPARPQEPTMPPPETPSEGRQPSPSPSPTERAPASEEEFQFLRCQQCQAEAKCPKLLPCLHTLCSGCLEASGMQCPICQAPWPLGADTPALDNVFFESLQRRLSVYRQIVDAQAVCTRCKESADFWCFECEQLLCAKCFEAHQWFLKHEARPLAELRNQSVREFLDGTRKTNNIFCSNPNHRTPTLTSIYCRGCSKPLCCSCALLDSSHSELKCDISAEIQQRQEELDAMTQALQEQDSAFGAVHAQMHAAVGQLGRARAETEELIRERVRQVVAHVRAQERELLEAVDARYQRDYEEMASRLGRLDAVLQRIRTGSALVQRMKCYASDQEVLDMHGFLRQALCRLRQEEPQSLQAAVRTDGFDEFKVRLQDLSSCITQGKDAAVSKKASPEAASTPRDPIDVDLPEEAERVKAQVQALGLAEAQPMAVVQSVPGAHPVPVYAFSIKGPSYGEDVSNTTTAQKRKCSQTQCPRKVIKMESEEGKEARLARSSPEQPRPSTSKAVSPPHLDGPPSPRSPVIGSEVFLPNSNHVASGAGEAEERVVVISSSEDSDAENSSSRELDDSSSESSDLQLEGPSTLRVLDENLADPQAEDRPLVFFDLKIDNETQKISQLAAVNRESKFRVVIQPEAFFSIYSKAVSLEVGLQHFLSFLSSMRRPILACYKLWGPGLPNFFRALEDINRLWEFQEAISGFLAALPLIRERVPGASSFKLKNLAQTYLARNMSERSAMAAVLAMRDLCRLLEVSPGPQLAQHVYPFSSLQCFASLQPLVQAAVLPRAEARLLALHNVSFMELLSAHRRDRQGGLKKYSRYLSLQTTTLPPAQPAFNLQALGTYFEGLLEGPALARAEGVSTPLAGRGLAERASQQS
UniProt P46937: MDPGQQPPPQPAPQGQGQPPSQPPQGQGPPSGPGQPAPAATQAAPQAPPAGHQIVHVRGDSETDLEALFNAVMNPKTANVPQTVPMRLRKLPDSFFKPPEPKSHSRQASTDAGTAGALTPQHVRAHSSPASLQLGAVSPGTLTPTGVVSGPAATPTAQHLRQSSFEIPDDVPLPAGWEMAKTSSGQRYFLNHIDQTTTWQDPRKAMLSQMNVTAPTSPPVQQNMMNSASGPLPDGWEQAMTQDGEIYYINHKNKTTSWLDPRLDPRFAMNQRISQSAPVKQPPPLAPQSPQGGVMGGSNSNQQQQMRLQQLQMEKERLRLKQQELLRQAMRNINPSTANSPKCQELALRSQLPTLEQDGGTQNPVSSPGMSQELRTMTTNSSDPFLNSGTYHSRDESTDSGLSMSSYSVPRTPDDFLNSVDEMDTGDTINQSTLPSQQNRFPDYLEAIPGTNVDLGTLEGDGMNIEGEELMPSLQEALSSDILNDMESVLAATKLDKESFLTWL

Results are given in words; binding and its absence hold for the method and conditions named. In cells and extracts the contact can be indirect. Some entries that bind do so weakly or less than the wild type.

The experiment concerns the target PML (human (endogenous in KYSE-450)) (UniProt P29590). Description: co-IP; KYSE-450 cell lysate (Pierce IP lysis buffer); mouse anti-PML mAb with protein G beads, 4 C, 16 h; beads washed four times with ten-fold diluted urea buffer; western blot.

In the case of YAP (from UniProt P46937 1-504), the binding entry is recorded as “binds”.
